Values of other authors as cited in US20160349242A1, “PLATFORM TECHNOLOGIES FOR SPONTANEOUSLY OCCURRING DISEASES” (Oatmeal Biotechnologies Group, LLC, priority 2009, published 2016).
Some results were stated once for a whole list of compounds, not compound by compound.

Tested on: canine osteosarcoma
Conditions: following amputation; cited from earlier work

Compound: COc1cccc2c1C(=O)c1c(O)c3c(c(O)c1C2=O)C[C@@](O)(C(=O)CO)C[C@@H]3O[C@H]1C[C@H](N)[C@H](O)[C@H](C)O1 [doxorubicin]
- mean survival time: 9-11 months
